This is one part of the list. Measured potencies and affinities stand elsewhere.

The test system of the test is Pseudomonas aeruginosa. As to conditions: Concentration 20 uM; ASSAY_TEST Inhibition of Bacterial Growth; detection method Absorption (OD600); MEDIA CAMHB; plate type 384well; NBS; CORNING #3640; time 18 hr.
For the compound `CCc1nn(CCCN2CCN(c3cccc(Cl)c3)CC2)c(=O)n1CCOc1ccccc1.Cl` [NEFAZODONE HYDROCHLORIDE], the Inhibition – broadly, the share of the control response that was lost under treatment – is reported as 7.83%.

`CN(C)c1nc(N(C)C)nc(N(C)C)n1` [ALTRETAMINE] registered an Inhibition of 10.65%. Under `COCC1=C(C(=O)OC(C)OC(=O)OC(C)C)N2C(=O)[C@@H](NC(=O)/C(=N\OC)c3csc(N)n3)[C@H]2SC1` (some centres not stated) [CEFPODOXIME PROXETIL] stands 10%.

The compound `O=[N+]([O-])c1cccc2cn[nH]c12` [7-NITROINDAZOLE] registered an Inhibition of 14.08%. For `CCCNCC(O)COc1ccccc1C(=O)CCc1ccccc1` (configuration not stated) [PROPAFENONE] the value was 13.87%.

In turn, `CN[C@@H]1[C@H](O)[C@H](NC)[C@H]2O[C@@]3(O)C(=O)C[C@@H](C)O[C@H]3O[C@@H]2[C@H]1O.Cl.Cl.Cl.O.O.O` registered an Inhibition of 14.15%. The compound `CCCCN1CCCC1CNC(=O)c1cc(C#N)c2ccccc2c1OC` (configuration not stated) [NAFADOTRIDE] came in with an Inhibition of 9.49%.

In turn, `CC(=O)O[C@]1(C(C)=O)CC[C@H]2[C@@H]3C=C(C)C4=CC(=O)CC[C@]4(C)[C@H]3CC[C@@]21C` [MEGESTROL ACETATE] showed an Inhibition of 9.23%.

On to `COc1ccc(C2CNC(=O)C2)cc1OC1CCCC1` (configuration not stated) [ROLIPRAM], for which the Inhibition was found to be 10.91%. On to `OC[C@H]1O[C@@H](Oc2cc(O)cc(/C=C/c3ccc(O)cc3)c2)[C@H](O)[C@@H](O)[C@@H]1O` [PICEID], for which the Inhibition is 7.23%. For `CC1(C)C[C@@H]1C(=O)N/C(=C\CCCCSC[C@H](N)C(=O)O)C(=O)[O-].[Na+]` [CILASTATIN SODIUM] the value was 8.63%; for `Cc1ccc(Cl)c(Nc2ccccc2C(=O)[O-])c1Cl.O.[Na+]` [MECLOFENAMATE SODIUM], 15.76%. With `CC(C)NCC(O)COc1ccc(COCCOC(C)C)cc1.CC(C)NCC(O)COc1ccc(COCCOC(C)C)cc1.O=C(O)/C=C/C(=O)O` (configuration not stated) [BISOPROLOL FUMARATE], the Inhibition is reported as 35.11%. For `CC(=O)OCC(CCn1cnc2cnc(N)nc21)COC(C)=O` [FAMCICLOVIR] the value was 12.09%; for `Cc1nc(=O)c2cc(CN(C)c3ccc(C(=O)N[C@@H](CCC(=O)O)C(=O)O)s3)ccc2[nH]1` [RALTITREXED], 12.62%. Under `CCOC(=O)[C@H](CCc1ccccc1)N[C@H]1CCc2ccccc2N(CC(=O)O)C1=O.Cl` [BENAZEPRIL HYDROCHLORIDE] stands 9.74%. For `CC[C@]1(O)C[C@@H]2CN(CCc3c([nH]c4ccccc34)[C@@](C(=O)OC)(c3cc4c(cc3OC)N(C=O)[C@H]3[C@@](O)(C(=O)OC)[C@H](OC(C)=O)[C@]5(CC)C=CCN6CC[C@]43[C@@H]65)C2)C1.O=S(=O)(O)O` the value was 17.99%.

Source of the values: ChEMBL document CHEMBL4513141, “CO-ADD screening of NIH (USA) - Clinical Collection” (2021).
